These are yes or no findings as the source states them, for the method shown. In cells and extracts the contact can be indirect. Here binding means that the protein was enriched with, or labelled near, the bait; the list need not be complete. Where a sequence is shown, tags or fusion partners need not be part of it.
Assays:
[1] = target: T1, GST-dysbindin-1 (human, isoform A) (human) (UniProt Q96EV8); assay: affinity purification with mass spectrometry; GST or GST-dysbindin-1 (human isoform A) on glutathione Sepharose 4B incubated 3 h at 4°C with precleared SH-SY5Y lysate (50 mM Tris-HCl pH 7.5, 150 mM NaCl, 1 mM EDTA, 1% Triton X-100); four washes; SDS-PAGE, CBB bands identified by MALDI-TOF-MS peptide mass fingerprinting; only the target …
T1 sequence: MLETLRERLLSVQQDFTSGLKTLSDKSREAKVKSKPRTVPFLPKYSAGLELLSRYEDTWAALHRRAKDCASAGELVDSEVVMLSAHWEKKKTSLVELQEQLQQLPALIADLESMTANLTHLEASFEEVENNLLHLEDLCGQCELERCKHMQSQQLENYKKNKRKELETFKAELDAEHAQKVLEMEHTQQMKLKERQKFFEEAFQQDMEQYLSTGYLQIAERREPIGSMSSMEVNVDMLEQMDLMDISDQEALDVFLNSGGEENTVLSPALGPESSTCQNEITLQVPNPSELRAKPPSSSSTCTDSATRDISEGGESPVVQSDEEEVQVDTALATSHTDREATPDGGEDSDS

Sequences of proteins named here, by UniProt entry; tags and fusion partners are left off. A change or cut given only in a name is not applied to a line headed by its entry. A line that says so, or that is headed by a name, gives the form on record, which may keep a tag or linker. Residues count along the entry.
UniProt P13010: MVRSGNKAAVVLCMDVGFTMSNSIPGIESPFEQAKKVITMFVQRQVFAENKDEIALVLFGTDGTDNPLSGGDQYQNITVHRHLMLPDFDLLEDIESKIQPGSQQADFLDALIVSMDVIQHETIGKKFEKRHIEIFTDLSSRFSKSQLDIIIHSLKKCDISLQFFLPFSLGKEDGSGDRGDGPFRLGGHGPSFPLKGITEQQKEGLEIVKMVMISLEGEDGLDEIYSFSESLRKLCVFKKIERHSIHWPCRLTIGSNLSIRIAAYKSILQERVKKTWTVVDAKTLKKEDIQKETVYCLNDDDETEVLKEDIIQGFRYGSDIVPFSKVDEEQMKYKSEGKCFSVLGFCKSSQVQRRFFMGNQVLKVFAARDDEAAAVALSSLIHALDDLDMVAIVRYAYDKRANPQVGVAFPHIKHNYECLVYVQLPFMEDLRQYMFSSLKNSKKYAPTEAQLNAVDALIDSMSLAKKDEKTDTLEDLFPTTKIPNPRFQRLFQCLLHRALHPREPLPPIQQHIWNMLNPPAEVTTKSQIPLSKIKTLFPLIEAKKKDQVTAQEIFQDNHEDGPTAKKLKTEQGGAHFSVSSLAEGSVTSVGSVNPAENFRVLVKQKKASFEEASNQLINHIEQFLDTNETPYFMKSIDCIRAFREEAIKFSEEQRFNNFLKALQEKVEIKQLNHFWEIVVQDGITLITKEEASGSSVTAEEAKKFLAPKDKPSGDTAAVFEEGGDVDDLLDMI
UniProt A2A5R2: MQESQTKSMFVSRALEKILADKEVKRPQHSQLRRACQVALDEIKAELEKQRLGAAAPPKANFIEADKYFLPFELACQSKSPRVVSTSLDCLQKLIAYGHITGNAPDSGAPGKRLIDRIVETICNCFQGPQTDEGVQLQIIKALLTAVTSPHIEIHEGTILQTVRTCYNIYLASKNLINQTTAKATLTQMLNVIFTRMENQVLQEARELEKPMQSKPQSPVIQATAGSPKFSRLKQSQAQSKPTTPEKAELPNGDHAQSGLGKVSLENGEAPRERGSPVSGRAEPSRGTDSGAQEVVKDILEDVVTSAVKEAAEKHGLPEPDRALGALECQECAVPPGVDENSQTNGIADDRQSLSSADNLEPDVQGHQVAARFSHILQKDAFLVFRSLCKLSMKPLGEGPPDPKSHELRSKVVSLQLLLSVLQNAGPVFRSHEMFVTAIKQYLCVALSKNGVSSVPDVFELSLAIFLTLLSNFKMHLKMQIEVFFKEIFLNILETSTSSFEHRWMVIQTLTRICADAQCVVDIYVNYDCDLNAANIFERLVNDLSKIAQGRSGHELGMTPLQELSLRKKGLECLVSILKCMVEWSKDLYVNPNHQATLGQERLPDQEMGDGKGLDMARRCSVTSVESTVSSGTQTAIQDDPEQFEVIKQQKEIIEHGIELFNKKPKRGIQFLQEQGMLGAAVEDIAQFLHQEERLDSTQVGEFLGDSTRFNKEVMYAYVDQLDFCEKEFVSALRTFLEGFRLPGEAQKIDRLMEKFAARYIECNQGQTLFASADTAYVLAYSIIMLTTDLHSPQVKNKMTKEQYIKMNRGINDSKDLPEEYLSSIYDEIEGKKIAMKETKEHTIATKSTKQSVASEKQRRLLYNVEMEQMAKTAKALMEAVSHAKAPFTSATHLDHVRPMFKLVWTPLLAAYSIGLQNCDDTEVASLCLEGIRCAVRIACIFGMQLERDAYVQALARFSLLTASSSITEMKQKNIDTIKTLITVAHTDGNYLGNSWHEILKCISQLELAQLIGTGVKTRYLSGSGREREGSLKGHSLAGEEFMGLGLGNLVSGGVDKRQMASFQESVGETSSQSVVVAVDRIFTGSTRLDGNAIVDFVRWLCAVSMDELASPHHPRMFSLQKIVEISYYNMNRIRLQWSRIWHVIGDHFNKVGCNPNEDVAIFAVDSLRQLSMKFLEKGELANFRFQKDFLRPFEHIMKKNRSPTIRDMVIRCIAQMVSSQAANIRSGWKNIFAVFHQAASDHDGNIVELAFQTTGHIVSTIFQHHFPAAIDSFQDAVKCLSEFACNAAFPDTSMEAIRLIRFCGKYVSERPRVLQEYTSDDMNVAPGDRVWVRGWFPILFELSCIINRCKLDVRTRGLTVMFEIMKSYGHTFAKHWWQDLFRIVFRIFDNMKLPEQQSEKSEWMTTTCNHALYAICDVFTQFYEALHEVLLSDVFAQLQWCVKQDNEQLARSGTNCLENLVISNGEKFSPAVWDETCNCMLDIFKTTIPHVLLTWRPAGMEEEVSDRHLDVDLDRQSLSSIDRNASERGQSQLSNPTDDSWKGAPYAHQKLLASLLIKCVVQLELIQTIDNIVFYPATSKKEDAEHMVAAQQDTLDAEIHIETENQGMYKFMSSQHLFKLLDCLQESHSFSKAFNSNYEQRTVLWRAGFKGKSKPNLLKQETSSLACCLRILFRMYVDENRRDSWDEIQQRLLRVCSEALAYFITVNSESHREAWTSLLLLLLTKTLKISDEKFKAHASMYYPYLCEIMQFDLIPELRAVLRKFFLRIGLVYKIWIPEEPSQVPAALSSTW
Atp2a2 (mouse) (O55143-2, form named): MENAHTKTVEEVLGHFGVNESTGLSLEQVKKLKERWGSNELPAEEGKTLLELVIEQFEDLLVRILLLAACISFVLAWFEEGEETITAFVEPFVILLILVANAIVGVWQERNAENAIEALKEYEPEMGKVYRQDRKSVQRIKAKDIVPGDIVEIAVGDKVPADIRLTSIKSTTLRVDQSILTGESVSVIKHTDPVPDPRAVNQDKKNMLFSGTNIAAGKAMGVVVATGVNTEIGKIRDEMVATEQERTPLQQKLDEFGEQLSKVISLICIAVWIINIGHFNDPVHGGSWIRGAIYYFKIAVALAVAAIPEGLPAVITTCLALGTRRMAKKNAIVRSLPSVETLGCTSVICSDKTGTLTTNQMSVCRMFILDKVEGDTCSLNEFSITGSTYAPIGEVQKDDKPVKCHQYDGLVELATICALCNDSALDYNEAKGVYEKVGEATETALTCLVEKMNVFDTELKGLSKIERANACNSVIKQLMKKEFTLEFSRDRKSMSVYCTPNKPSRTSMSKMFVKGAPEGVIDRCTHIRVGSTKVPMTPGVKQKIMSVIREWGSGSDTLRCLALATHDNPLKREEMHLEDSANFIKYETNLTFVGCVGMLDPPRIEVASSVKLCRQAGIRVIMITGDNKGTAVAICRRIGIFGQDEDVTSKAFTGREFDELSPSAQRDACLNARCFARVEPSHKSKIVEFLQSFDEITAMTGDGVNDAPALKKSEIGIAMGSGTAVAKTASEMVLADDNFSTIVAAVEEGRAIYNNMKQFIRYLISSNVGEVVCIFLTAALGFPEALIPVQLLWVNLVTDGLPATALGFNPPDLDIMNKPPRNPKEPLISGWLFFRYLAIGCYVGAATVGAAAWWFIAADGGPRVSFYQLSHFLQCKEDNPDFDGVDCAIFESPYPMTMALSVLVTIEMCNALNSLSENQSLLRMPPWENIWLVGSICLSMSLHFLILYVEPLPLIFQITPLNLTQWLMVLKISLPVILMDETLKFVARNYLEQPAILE
UniProt Q03265, residues 44-553: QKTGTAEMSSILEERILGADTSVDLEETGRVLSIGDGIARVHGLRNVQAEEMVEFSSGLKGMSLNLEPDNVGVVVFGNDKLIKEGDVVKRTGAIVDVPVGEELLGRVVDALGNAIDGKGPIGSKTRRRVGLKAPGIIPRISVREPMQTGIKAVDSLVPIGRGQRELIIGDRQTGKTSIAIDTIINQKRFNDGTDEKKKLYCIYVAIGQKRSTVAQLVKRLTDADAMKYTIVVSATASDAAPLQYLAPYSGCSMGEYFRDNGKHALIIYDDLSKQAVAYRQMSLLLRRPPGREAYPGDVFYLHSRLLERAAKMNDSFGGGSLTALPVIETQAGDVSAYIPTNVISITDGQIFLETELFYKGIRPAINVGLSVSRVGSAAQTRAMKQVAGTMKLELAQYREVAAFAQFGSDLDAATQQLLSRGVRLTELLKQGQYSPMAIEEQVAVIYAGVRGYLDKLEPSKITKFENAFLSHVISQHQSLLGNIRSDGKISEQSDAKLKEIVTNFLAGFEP
UniProt Q8BMS1, residues 37-763: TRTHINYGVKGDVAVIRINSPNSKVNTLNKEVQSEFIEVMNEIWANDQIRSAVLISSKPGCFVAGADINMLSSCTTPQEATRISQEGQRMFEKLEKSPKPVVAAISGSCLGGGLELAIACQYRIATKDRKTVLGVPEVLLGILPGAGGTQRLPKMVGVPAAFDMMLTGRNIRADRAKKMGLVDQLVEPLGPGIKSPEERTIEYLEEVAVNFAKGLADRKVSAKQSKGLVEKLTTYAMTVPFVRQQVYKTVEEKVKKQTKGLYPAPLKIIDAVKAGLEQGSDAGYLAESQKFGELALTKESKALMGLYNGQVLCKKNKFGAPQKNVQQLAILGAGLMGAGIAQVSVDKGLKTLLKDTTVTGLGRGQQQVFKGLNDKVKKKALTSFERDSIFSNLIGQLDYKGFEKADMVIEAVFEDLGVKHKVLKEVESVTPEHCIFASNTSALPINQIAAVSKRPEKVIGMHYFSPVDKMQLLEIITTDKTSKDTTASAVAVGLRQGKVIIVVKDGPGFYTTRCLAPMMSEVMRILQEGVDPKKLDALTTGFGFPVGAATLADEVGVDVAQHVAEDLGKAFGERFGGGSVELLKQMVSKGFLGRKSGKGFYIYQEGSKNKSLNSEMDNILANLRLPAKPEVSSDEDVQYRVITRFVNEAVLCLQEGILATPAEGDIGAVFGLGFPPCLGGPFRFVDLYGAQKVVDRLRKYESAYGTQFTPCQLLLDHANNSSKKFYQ
UniProt P09874: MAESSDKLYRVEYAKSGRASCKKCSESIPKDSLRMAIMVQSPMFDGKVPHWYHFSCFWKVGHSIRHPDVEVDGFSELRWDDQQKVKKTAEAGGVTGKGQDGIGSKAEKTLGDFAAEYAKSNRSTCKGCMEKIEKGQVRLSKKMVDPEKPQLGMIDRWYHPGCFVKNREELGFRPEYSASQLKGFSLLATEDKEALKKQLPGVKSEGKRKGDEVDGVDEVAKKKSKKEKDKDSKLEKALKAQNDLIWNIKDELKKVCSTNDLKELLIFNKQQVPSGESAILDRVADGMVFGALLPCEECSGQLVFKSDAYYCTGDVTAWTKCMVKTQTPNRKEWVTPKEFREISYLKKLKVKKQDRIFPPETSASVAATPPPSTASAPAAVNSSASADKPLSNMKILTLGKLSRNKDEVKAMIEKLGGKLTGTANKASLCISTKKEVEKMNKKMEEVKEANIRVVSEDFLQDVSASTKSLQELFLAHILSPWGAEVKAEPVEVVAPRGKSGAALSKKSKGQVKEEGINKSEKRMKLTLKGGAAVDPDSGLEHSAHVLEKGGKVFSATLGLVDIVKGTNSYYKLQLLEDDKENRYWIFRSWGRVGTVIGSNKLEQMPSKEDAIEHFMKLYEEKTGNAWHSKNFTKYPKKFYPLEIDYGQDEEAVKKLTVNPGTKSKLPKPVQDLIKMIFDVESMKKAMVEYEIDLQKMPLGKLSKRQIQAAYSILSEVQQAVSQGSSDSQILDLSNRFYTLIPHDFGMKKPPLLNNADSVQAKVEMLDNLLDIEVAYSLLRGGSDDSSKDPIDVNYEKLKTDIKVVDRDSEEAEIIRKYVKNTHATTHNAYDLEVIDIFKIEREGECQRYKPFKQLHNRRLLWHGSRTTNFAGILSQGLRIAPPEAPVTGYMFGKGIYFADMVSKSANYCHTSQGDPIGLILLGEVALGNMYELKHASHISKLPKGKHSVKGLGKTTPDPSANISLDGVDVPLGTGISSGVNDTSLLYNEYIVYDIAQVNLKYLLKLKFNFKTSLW

[2] = target: T2, GST-dysbindin-1 (mouse) (mouse) (UniProt Q91WZ8); assay: affinity purification with mass spectrometry; GST-dysbindin-1 (mouse) on glutathione Sepharose 4B incubated 3 h at 4°C with precleared mouse skeletal muscle homogenate in lysis buffer; specific CBB bands identified by MALDI-TOF-MS; only the target purified
T2 sequence: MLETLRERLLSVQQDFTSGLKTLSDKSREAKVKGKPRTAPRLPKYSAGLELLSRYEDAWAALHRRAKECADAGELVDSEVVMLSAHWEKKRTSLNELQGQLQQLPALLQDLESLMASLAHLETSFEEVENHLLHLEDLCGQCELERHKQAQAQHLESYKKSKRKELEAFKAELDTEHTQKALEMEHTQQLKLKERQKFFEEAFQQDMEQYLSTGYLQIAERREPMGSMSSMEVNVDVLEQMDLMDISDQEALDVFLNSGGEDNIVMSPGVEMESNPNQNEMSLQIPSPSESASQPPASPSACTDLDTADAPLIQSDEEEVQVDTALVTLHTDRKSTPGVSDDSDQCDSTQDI

binding [1]	binding [2]	Substance
binds		ATP-dependent DNA helicase 2 (Ku80), endogenous (from UniProt P13010 1-732)
	binds	Arfgef2 (mouse) (from UniProt A2A5R2 1-1792)
	binds	Atp2a2 (mouse) (from UniProt O55143-2 1-998)
	binds	Atp5a1 (mouse) (from UniProt Q03265 44-553)
binds		DNA-dependent protein kinase catalytic subunit (DNA-PKcs) (from UniProt P78527-1 1-4128) (enzyme)
	binds	Hadha (mouse) (from UniProt Q8BMS1 37-763)
binds		poly (ADP-ribose) polymerase family, member 1 (PARP1) (from UniProt P09874 1-1014) (enzyme)

Source: article PMC2614472
